We go through 64 molecules from PubChem BioAssay AID493014 (National Center for Advancing Translational Sciences (NCATS), 2011).

The nature of the assay: qHTS Assay to Find Inhibitors of Chronic Active B-Cell Receptor Signaling. The settings on record: ABC-DLBCL IkBa-CBG/CBR reporter, luminescence ratio (green luciferase fused to IkBa over red control in TMD8 lymphoma cells), 4 h. The method in brief:
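TMD8 human ABC-DLBCL cells with doxycycline-inducible IκBα–green luciferase fusion and unfused red luciferase, in 0.5% FBS medium; compounds up to 46 uM, 4 h at 37C. Green/red luminescence ratio, filter-overlap corrected, fitted to concentration-response curves.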
A general note: Quantitative high-throughput screening tests each substance at several concentrations.

[1] abbreviates: measured here: CBR red luminescence, cell number.
The mark [2] stands for this setting: measured here: IkBa-CBG green luminescence.

This is one part of the list. The main result of the screen is listed elsewhere. These columns were measured beside it and carry no call. The list favours compounds with an active or inconclusive main result. The note in brackets gives the kind of curve behind each potency; many fits are weak.

By AC50 is commonly meant the concentration at which the activity in the assay is half-maximal. Turning to `CCN(CC)S(=O)(=O)c1ccc(C)c(NC(=O)COC(=O)CCC(=O)c2cccs2)c1`, the concentration at half-maximal activity (AC50) under setting [1] was 16.4 µM [rising, partial curve, poor fit]. Take `Cc1nn(C(C)C(=O)N2CCc3ccccc3C2)c(=O)c2cc3occc3n12` (configuration not stated): the AC50 under setting [1] was 35.5 µM [falling, single point]. On to `Cc1cccc(CSc2nc3nc(C)cc(C)n3n2)c1`, for which the AC50 under setting [1] is 15.8 µM [rising, single point]. For the molecule `COc1ccc(N2C(=O)CS(=O)C(c3ccccc3)C2=O)cc1` (configuration not stated), the AC50 by setting is: under setting [1], 12.6 µM [falling, partial curve]; under setting [2], 15.8 µM [falling, partial curve, poor fit]. Consider `CCOC(=O)c1c(C)oc(NC(=O)CCl)c1C(=O)OCC`, for which the AC50 under setting [1] was 10 µM [falling, partial curve]. Take `CCOC(=O)CC1ON(C)C(=O)N1c1ccc([N+](=O)[O-])cc1` (configuration not stated): the AC50 under setting [1] is 1.3 µM [rising, full curve].

Turning to `COc1ccc(S(=O)(=O)Nc2nc3ccccc3nc2Nc2ccc3c(c2)OCO3)cc1`, under setting [1], the AC50 is 0.731 µM [falling, full curve, poor fit]. Take `N#Cc1nc(-c2ccccc2F)oc1N1CCN(C(=O)c2ccco2)CC1`: the AC50 under setting [1] is 12.6 µM [falling, partial curve, poor fit]. Take `Cc1nc2ccc3[nH]snc3c2n1`: the half-maximal activity concentration (AC50) under setting [1] is 2.31 µM [falling, single point].

With `CC(C)NS(=O)(=O)c1ccc(NC(=S)NC(=O)c2cccc([N+](=O)[O-])c2)cc1`, the AC50 under setting [1] is 16.4 µM [falling, partial curve, poor fit]. In the case of `Cc1ccc(O)c(CNc2nc3ccccc3n2C)c1`, the AC50 under setting [1] was 28.2 µM [rising, partial curve, poor fit].

On to `Cc1cccc(Oc2cc(NC(=O)Cn3cnc([N+](=O)[O-])n3)cc([N+](=O)[O-])c2)c1`, for which the AC50 under setting [1] was 20.6 µM [falling, single point]. On to `Cn1nccc1C(=O)Oc1ccc(/C=N/NC(=O)c2ccccc2O)cc1`, for which, under setting [1], the AC50 is 1.12 µM [falling, full curve]. On to `CCN(CC)CCOc1ccc(/C(=C(/Cl)c2ccccc2)c2ccccc2)cc1`, for which, under setting [1], the AC50 is 15.8 µM [falling, single point]. As to `C=CCNC(=S)N/N=C(\C)c1cccc(NC(C)=O)c1`, the half-maximal activity concentration (AC50) runs as follows: under setting [1], 35.5 µM [falling, single point]; under setting [2], 22.4 µM [falling, single point].

As for `Cc1ccc(NC(=O)c2cc(NC(=O)c3ccco3)ccc2N2CCOCC2)cc1`, the AC50 under setting [1] is 1.3 µM [falling, full curve].

On to `Cc1cc(/C=C2/NC(=O)NC2=O)c(C)n1-c1sc2c(c1C#N)CCCC2`, for which the AC50 under setting [1] was 29.1 µM [falling, single point]. As for `O=C(Nc1ccc(NC(=O)c2cccs2)cn1)c1ccco1`, the AC50 under setting [1] is 14.1 µM [falling, single point]. On to `C=CCSc1nnc(NC(=O)C2=COCCO2)s1`, for which the AC50 under setting [1] is 18.4 µM [falling, single point]. With `C/C(=N/NC(=O)CNc1ccc(Cl)cc1C)c1ccc(C)cc1`, the concentration at half-maximal activity (AC50) under setting [1] was 14.1 µM [falling, partial curve, poor fit]. Regarding `COC(=O)C1=C(C)NC(C)=C(C(=O)OC)C1C(=O)OCCN1C(=O)c2ccccc2C1=O`, the AC50 under setting [1] is 3.55 µM [rising, single point]. As for `CNC(=O)c1c(Cl)cnn1-c1ccc(F)cc1`, the AC50 under setting [1] is 35.5 µM [rising, single point]. In the case of `CN(C)S(=O)(=O)c1cccc(NC(=O)COc2ccccc2C(=O)NCc2ccccc2)c1`, the AC50 under setting [1] is 2.06 µM [falling, partial curve, poor fit]. Turning to `COc1ccc(C(=O)Nc2ccc(F)cc2F)cc1OC`, the half-maximal activity concentration (AC50) under setting [1] is 12.6 µM [falling, partial curve].

`O=C(CCC1CCCCC1)Nc1nnc(C(F)(F)F)s1`: the AC50 under setting [1] was 0.316 µM [rising, full curve, poor fit]. For the molecule `CCCN(C(=O)c1c(-c2ccccc2)noc1C)c1c(N)n(Cc2ccccc2)c(=O)[nH]c1=O`, under setting [1], the AC50 is 20.6 µM [falling, single point].

Regarding `C/C(=N\NC(=S)NC1CCCCC1)c1c(F)cccc1F`, the AC50 under setting [1] was 17.8 µM [rising, single point] and the half-maximal activity concentration (AC50) under setting [2] is 7.08 µM [falling, partial curve, poor fit]. In the case of `COc1ccccc1N1CCN(C(=O)c2cccc(N3C(=O)NC4CC3(C)Oc3c(OC)cccc34)c2)CC1` (configuration not stated), under setting [1], the AC50 was 10 µM [falling, partial curve, poor fit]. On the same count and under the same terms, as for `CCN(CC)C(=O)c1sc2c(c1C)c(=O)n(Cc1ccccc1)c(=O)n2Cc1c(C)cc(C)cc1C`, the figure is 12.6 µM [falling, partial curve, poor fit]; as for `Cc1cccc(/C=C2\Sc3ccc(C(=O)N4CCCCC4)cc3N(C)C2=O)c1`, 14.1 µM [falling, partial curve]; as for `Fc1cccc(NC(=S)N2CCn3cccc3C2c2cccnc2)c1` (configuration not stated), 35.5 µM [rising, partial curve, poor fit]. Still for that read-out and setting: as for `CC(=O)Nc1ccc(-c2csc(Nc3cccc(C)n3)n2)cc1`, the figure is 3.55 µM [falling, partial curve, poor fit]; as for `COc1ccc(/C(C)=N/Nc2cc(C(F)(F)F)ccc2Cl)c(OC)c1`, 14.6 µM [rising, single point].

With `O=C1CCC(=O)N1CC(O)COc1ccccc1` (configuration not stated), the AC50 under setting [1] is 3.55 µM [rising, full curve, poor fit]. Take `O=C(Nc1ccc2c(c1)OCO2)Nc1ccc(F)cc1F`: the concentration at half-maximal activity (AC50) under setting [1] is 5.01 µM [falling, partial curve]. For the molecule `COc1ccc(-n2cc(CNCCCN3CCCC3=O)c(-c3ccccc3Cl)n2)cc1`, under setting [1], the AC50 is 4.47 µM [rising, full curve, poor fit]. Same read-out and setting: as for `C=CCOc1nc(-c2ccncc2)nc2ccccc12`, the figure is 20 µM [falling, partial curve, poor fit]; as for `CCC(Oc1ccccc1)C(=O)Nc1ccc(-c2nnc(-c3ccco3)o2)cc1` (configuration not stated), 1.3 µM [rising, full curve, poor fit].

For `CCOCc1cn(CC(=O)c2ccc(Cl)cc2)c(C)nc1=N`, the AC50 under setting [1] was 0.517 µM [rising, full curve, poor fit]. Consider `Clc1ccc(OCCCn2cncn2)cc1Cl`, for which the AC50 under setting [1] was 29.1 µM [rising, single point]. Take `Cc1cccc(CCNC(=O)CCNS(=O)(=O)c2cc(Br)cnc2N)c1`: under setting [1], the AC50 is 6.31 µM [falling, full curve, poor fit]. The same measure, in the same setting: as for `Cc1cnc(NC(=O)c2ccc(OCC3CCCO3)cc2)s1` (configuration not stated), the figure is 7.08 µM [falling, partial curve]; as for `CN(C)c1nc(NC(C)(C)C)nc(SCC(=O)Nc2ccccc2)n1`, 2.51 µM [rising, partial curve, poor fit].

In the case of `NC(=Nc1ccc(N)cc1)C(N)=Nc1ccc(N)cc1`, the concentration at half-maximal activity (AC50) under setting [1] was 11.2 µM [falling, partial curve, poor fit]. Turning to `O=C(COc1ccccc1)NNC1=NS(=O)(=O)c2ccccc21`, the AC50 under setting [1] was 15.8 µM [falling, single point]. For the molecule `O=C(CN1C(=O)c2ccccc2S1(=O)=O)NC1CC2CCC1C2` (configuration not stated), the AC50 under setting [1] is 0.231 µM [rising, full curve, poor fit]. For `Cn1ncc(Br)c1C(=O)OCC(=O)Nc1nc(-c2ccccc2)cs1`, under setting [1], the AC50 was 5.17 µM [falling, full curve]. For `COc1ccc(/C=N/NC(=O)c2ccn[nH]2)cc1COc1ccc([N+](=O)[O-])c(C)c1`, under setting [1], the AC50 is 35.5 µM [falling, single point].

`COCC(C)NC(=O)NC(=O)c1ccc(Cl)cc1` (configuration not stated): the AC50 under setting [1] is 2.91 µM [rising, partial curve, poor fit]. With `CCN(c1ccccc1)S(=O)(=O)c1cc(C(=O)NCC(c2ccco2)N2CCCCC2)ccc1C` (configuration not stated), the AC50 under setting [1] is 29.1 µM [falling, single point].

As to `CN1CCN(C(=O)C2=C[C@H](c3csc4ccccc34)C[C@H](OCCCCO)O2)CC1`, under setting [1], the half-maximal activity concentration (AC50) is 0.794 µM [rising, full curve, poor fit]. Consider `CCCCN(CCCNC(=O)C1CCN(S(=O)(=O)N2CCOCC2)CC1)c1ccccc1`, for which the AC50 under setting [1] was 35.5 µM [falling, single point].

For `Cc1c(OC(C)C(=O)NCCN2CCOCC2)ccc2c3c(c(=O)oc12)CCCC3` (configuration not stated), the AC50 under setting [1] is 11.2 µM [rising, single point]. `CCc1ccc(CN(C)Cc2nc(-c3cccc(Cl)c3)no2)nc1`: under setting [1], the AC50 is 11.2 µM [rising, single point]. Turning to `COc1ccc2c(c1)CCc1c-2n[nH]c1C(=O)NCCC(C)C`, the AC50 under setting [1] was 35.5 µM [falling, single point]. `CCOC(=O)c1cccc(Nc2nc(-c3cccnc3)nc3ccccc23)c1`: the AC50 under setting [1] is 12.6 µM [falling, single point]. For `C=CCOc1ccccc1C(=O)/C=C1/C(=O)Nc2ccccc21`, the AC50 under setting [1] is 20 µM [falling, single point].

For `Cc1noc(C)c1COc1ccccc1C(=O)NC1CCC(C)CC1` (configuration not stated), the AC50 under setting [1] was 2.82 µM [rising, single point].

For the molecule `Cc1ccccc1C(=O)Nc1cccc(NC(=O)c2ccc(F)cc2)c1`, under setting [1], the AC50 was 7.08 µM [falling, partial curve, poor fit].

Take `Cc1cc(C)nc(NC(=O)c2ccc(Cl)cc2Cl)n1`: the AC50 under setting [1] is 31.6 µM [rising, single point]. For the molecule `Cc1cc(=O)oc(C)c1C(=O)OCC(=O)c1ccc(Cl)c(Cl)c1`, the concentration at half-maximal activity (AC50) under setting [1] was 20.6 µM [rising, single point].

Consider `COc1ccc([N+](=O)[O-])cc1/C=N/NC(=O)Cc1ccccc1`, for which the half-maximal activity concentration (AC50) under setting [1] is 11.2 µM [rising, partial curve].

For `COc1ccc(C2CC(c3ccccc3O)=NN2C(=O)c2ccccc2)cc1OC` (configuration not stated), the AC50 under setting [1] is 15.8 µM [falling, single point]. In the case of `COc1ccc(-c2ccc(/C=C3/C(=N)N4C(C)=CSC4=NC3=O)o2)c([N+](=O)[O-])c1`, the AC50 under setting [1] is 25.9 µM [rising, partial curve, poor fit].
